Data taken from PMC5701936.
Results are given in words; binding and its absence hold for the method and conditions named. Binding seen in cells or lysates may run through a third protein. Some results given as binding are weak or reduced against the parent protein; the word gives no strength. Sequences can lack the tags named with a protein.

Assays:
[1] = biological target: T1, LIP5-YFPC (Arabidopsis thaliana) (UniProt Q9SZ15); assay: split reporter; BiFC with YFPN and YFPC fusions in transfected N. benthamiana leaf epidermis cells, confocal microscopy
T1 sequence: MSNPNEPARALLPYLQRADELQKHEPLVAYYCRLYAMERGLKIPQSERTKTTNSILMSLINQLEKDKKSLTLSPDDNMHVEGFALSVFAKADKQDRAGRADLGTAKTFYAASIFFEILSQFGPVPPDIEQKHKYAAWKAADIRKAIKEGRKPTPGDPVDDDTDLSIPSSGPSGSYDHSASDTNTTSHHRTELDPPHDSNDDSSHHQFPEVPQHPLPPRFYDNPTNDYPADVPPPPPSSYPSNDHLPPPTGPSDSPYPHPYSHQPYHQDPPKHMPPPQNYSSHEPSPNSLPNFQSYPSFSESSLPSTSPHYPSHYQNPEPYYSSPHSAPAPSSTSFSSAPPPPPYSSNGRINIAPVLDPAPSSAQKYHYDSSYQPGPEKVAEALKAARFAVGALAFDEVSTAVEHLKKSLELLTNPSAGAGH

TTG1-YFPC = biological target: T2, TTG1-YFPC (UniProt Q9XGN1); assay: as above
T2 sequence: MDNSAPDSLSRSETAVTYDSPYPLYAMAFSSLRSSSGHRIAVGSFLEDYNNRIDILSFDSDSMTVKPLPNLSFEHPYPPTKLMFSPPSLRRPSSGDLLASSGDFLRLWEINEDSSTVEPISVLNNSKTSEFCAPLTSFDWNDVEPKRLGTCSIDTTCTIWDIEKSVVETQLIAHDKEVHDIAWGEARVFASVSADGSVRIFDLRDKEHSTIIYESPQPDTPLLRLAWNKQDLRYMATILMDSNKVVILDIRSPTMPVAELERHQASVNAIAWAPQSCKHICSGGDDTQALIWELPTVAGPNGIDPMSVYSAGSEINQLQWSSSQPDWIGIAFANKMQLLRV

B1: AtMYC1 (MYC related protein1) N-terminally fused to YFP-fragments (protein, UniProt Q8W2F1 1-526)
chain: MSLTMADGVEAAAGRSKRQNSLLRKQLALAVRSVQWSYAIFWSSSLTQPGVLEWGEGCYNGDMKKRKKSYESHYKYGLQKSKELRKLYLSMLEGDSGTTVSTTHDNLNDDDDNCHSTSMMLSPDDLSDEEWYYLVSMSYVFSPSQCLPGRASATGETIWLCNAQYAENKLFSRSLLARSASIQTVVCFPYLGGVIELGVTELISEDHNLLRNIKSCLMEISAHQDNDDEKKMEIKISEEKHQLPLGISDEDLHYKRTISTVLNYSADRSGKNDKNIRHRQPNIVTSEPGSSFLRWKQCEQQVSGFVQKKKSQNVLRKILHDVPLMHTKRMFPSQNSGLNQDDPSDRRKENEKFSVLRTMVPTVNEVDKESILNNTIKYLQELEARVEELESCMGSVNFVERQRKTTENLNDSVLIEETSGNYDDSTKIDDNSGETEQVTVFRDKTHLRVKLKETEVVIEVRCSYRDYIVADIMETLSNLHMDAFSVRSHTLNKFLTLNLKAKFRGAAVASVGMIKRELRRVIGDLF
binding [1]: no binding | binding (TTG1-YFPC): binds
